Measurements: paper PMC10713660
These are yes or no findings as the source states them, for the method shown. Binding seen in cells or lysates may run through a third protein. Some entries that bind do so weakly or less than the wild type. Tags and fused reporters may be left off the sequences shown.

Target: coiled-coil glutamate-rich protein 1 (CCER1), mouse, full length, expressed as differently tagged copies (mouse) (UniProt Q9CQL2)
Test: co-IP; HEK293T cells transfected with Flag-CCER1, mCherry-CCER1 and GFP-CCER1 plasmids for 36-48 h; lysed in RIPA buffer (50 mM Tris-HCl pH 7.5, 150 mM NaCl, 0.05% SDS, 1 mM EDTA, 1% NP-40, 1 mM DTT, 0.5% sodium deoxycholate) and sonicated at 4 °C; IP with anti-mCherry, anti-Flag or anti-GFP antibodies overnight at 4 °C, Protein A/G beads; western blot

B1: coiled-coil glutamate-rich protein 1 (CCER1), mouse, full length, expressed as differently tagged copies (protein, UniProt Q9CQL2 1-403)
chain: MTQTVNEREDPLNLGGGGWASSIPLRTWSSYHRRQRGAPVSKRRYRDGPKIEYEASRKQPKQQRSPGSWFQPSRGPYWALYSNWERCGGPWRPPLIAFQSPLCPAQMIRAYGLHPLCVCCCSCWSGPWNPGWERPPGRKKRWGRRGRGLRRHPRRSFPRNPPIDLSKMLRPVNLSGWRAPGMRAPRNTTQFIMNQVYEDMRQQEKLERQQAALRAQQAQEGGISPGDSTTNDAPHSGVEEDSQLPEDLYGFMQDPSLTFSPALMQHNQSPTPGLVEEEEKNVDDDECDVEVCDEKEESEEEEEEEVDRGSEDEDVDEEEVEAAGNGEEGEEDQEEEYMLEETGLEEGEQRAEEKFLPLGMPLSILVGDEEERENFMNYDYLSQEQIIPNVPEADLFMVPDISH
binding: binds
